# Source: patent publication US20220289816A1, “IMMUNOTHERAPY WITH B*07 RESTRICTED PEPTIDES AND COMBINATION OF PEPTIDES AGAINST CANCERS AND RELATED METHODS” (Immatics Biotechnologies GmbH, priority 2018, published 2022)
# System: tumor tissue samples and normal tissue samples (HLA-B*07 positive)
# Test: Identification and quantitation of tumor associated peptides presented on the cell surface (HLA immunoprecipitation, label-free LC-MS)
# Set-up: species or system human
# Details: Table 8a; cancer entities on which the peptide was found presented (abbreviations in table head)
row,Substance,Peptide Presentation on cancer entities
1,171 (LPLGGHKSL; listed as Homo sapiens) [compound 171],MEL
2,124 (KTIDGHINL; listed as Homo sapiens) [compound 124],"CRC, NSCLCadeno, NSCLCother"
3,239 (VLPRAGGAFLM; listed as Homo sapiens) [compound 239],NSCLCadeno
4,166 (YAYTSRVIL; listed as Homo sapiens) [compound 166],NHL
5,180 (RLRDYISSL; listed as Homo sapiens) [compound 180],"CLL, NHL"
6,284 (RPSAPRGPP; listed as Homo sapiens) [compound 284],"CRC, OSCAR"
7,191 (KPKAVKPKAA; listed as Homo sapiens) [compound 191],NSCLCadeno
8,157 (RPVTGSVC; listed as Homo sapiens) [compound 157],"BRCA, NSCLCadeno"
9,308 (RPDVVRTLL; listed as Homo sapiens) [compound 308],"CRC, GBC, GC, HNSCC, MEL, NSCLCadeno, NSCLCsquam, OSCAR, PACA, RCC, UBC"
10,218 (VQRTPPPI; listed as Homo sapiens) [compound 218],"GC, NSCLCadeno, NSCLCsquam, OSCAR"
11,126 (MPREDAHF; listed as Homo sapiens) [compound 126],MEL
12,301 (FPAFLEAM; listed as Homo sapiens) [compound 301],MEL
13,338 (MPATPSLKV; listed as Homo sapiens) [compound 338],"HNSCC, OC, PACA, UBC"
14,89 (FLIPRAGWLAGL; listed as Homo sapiens) [compound 89],CRC
15,273 (TDTPSTTPTTI; listed as Homo sapiens) [compound 273],"CCC, CRC, GBC, GBM, HCC, MEL, NSCLCadeno, OSCAR, PACA, PRCA, RCC, SCLC, UEC"
16,321 (QPQQPGFFL; listed as Homo sapiens) [compound 321],CLL
17,80 (SALPTTISF; listed as Homo sapiens) [compound 80],"HNSCC, OSCAR, SCLC"
18,304 (SPLIGDFPAF; listed as Homo sapiens) [compound 304],MEL
19,122 (KPRTPFTTAQLL; listed as Homo sapiens) [compound 122],UEC
20,79 (GPASDHPSL; listed as Homo sapiens) [compound 79],"OC, PRCA, UEC"
21,303 (RPPPPCIAL; listed as Homo sapiens) [compound 303],MEL
22,279 (APADEPRTVL; listed as Homo sapiens) [compound 279],NSCLCsquam
23,100 (TPIPFDKILY; listed as Homo sapiens) [compound 100],OSCAR

row,Substance,Peptide Presentation on cancer entities
1,350 (RPKSTLMNF; listed as Homo sapiens) [compound 350],"OC, OSCAR"
2,156 (GSRPVTGSV; listed as Homo sapiens) [compound 156],BRCA
3,53 (SPRIPFSTF; listed as Homo sapiens) [compound 53],MEL
4,76 (KPKVESQAL; listed as Homo sapiens) [compound 76],BRCA
5,382 (RPGPQRTTSV; listed as Homo sapiens) [compound 382],"BRCA, CCC, CLL, HCC, MEL, NHL, OC, OSCAR, PRCA, SCLC, UEC"
6,370 (AAHEFGHVL; listed as Homo sapiens) [compound 370],"BRCA, UEC"
7,201 (LPIARVLTV; listed as Homo sapiens) [compound 201],UEC
8,118 (NPERHKPSF; listed as Homo sapiens) [compound 118],AML
9,207 (VPSDITTAF; listed as Homo sapiens) [compound 207],"NSCLCadeno, OSCAR, SCLC"
10,138 (VPFNLITEY; listed as Homo sapiens) [compound 138],MEL
11,238 (LPRAGGAFLM; listed as Homo sapiens) [compound 238],HNSCC
12,107 (GQRLESPGGAA; listed as Homo sapiens) [compound 107],"AML, CCC, CLL, CRC, GBC, HCC, HNSCC, NSCLCsquam, PACA, UBC, UEC"
13,58 (APLLPIRTLPL; listed as Homo sapiens) [compound 58],UBC
14,374 (KPRNMTGLDL; listed as Homo sapiens) [compound 374],CLL
15,312 (SPSLQSSRESL; listed as Homo sapiens) [compound 312],UBC
16,200 (EPFHLIVSY; listed as Homo sapiens) [compound 200],"CRC, HNSCC, MEL, NSCLCadeno, NSCLCsquam, OSCAR, RCC, SCLC"
17,362 (KPMLPPAAF; listed as Homo sapiens) [compound 362],UEC
18,129 (MTLPATTLTL; listed as Homo sapiens) [compound 129],"BRCA, CCC, CLL, CRC, GBC, GBM, HCC, HNSCC, MEL, NSCLCadeno, NSCLCsquam, OC, OSCAR, PACA, RCC, SCLC, UBC, UEC"
19,302 (IPIDQILNSF; listed as Homo sapiens) [compound 302],MEL
20,61 (LPRIPFSTF; listed as Homo sapiens) [compound 61],MEL
21,55 (LPALLRSGL; listed as Homo sapiens) [compound 55],"CCC, GBC, HCC, HNSCC, NSCLCadeno, NSCLCsquam, OC, OSCAR, RCC, SCLC"
22,259 (VPMPGVQAV; listed as Homo sapiens) [compound 259],UEC
23,285 (RITWKGLLL; listed as Homo sapiens) [compound 285],NSCLCother

row,Substance,Peptide Presentation on cancer entities
1,363 (KPRTPFTTA; listed as Homo sapiens) [compound 363],UEC
2,4 (GPKKFIVKL; listed as Homo sapiens) [compound 4],PRCA
3,364 (KPRTPFTTAQL; listed as Homo sapiens) [compound 364],"BRCA, CRC, GBM, RCC, UEC"
4,175 (AAFPHKIIF; listed as Homo sapiens) [compound 175],OSCAR
5,214 (LPLKFFPII; listed as Homo sapiens) [compound 214],UEC
6,164 (RAAGRRLQL; listed as Homo sapiens) [compound 164],HCC
7,184 (KIIASGNHL; listed as Homo sapiens) [compound 184],NSCLCother
8,150 (APLHGGGSL; listed as Homo sapiens) [compound 150],PRCA
9,21 (APSRLLEL; listed as Homo sapiens) [compound 21],HCC
10,73 (LPVSSPVTL; listed as Homo sapiens) [compound 73],"BRCA, NSCLCsquam"
11,108 (APRGSPPI; listed as Homo sapiens) [compound 108],"HCC, OC, OSCAR, PACA, RCC"
12,82 (DAAHPGPSV; listed as Homo sapiens) [compound 82],UEC
13,337 (IPTSRVITL; listed as Homo sapiens) [compound 337],"BRCA, CLL, HCC, MEL, NHL, NSCLCadeno, NSCLCsquam, OC, OSCAR, PACA, SCLC"
14,300 (HPYSDLADVF; listed as Homo sapiens) [compound 300],MEL
15,371 (APRSPGQVTPRGL; listed as Homo sapiens) [compound 371],"NSCLCadeno, OC"
16,99 (MPVSAFTVI; listed as Homo sapiens) [compound 99],"GC, NSCLCsquam"
17,353 (KPRATWTL; listed as Homo sapiens) [compound 353],"AML, BRCA, CCC, CLL, GBC, GC, HCC, HNSCC,MEL, NSCLCadeno, NSCLCsquam, OC, OSCAR, PACA, RCC, SCLC, UEC"
18,111 (YPLQQTNVY; listed as Homo sapiens) [compound 111],RCC
19,257 (APYGTLRKS; listed as Homo sapiens) [compound 257],MEL
20,101 (KPGLPGLK; listed as Homo sapiens) [compound 101],"BRCA, CRC, GBM, HCC, MEL, NHL, NSCLCadeno, NSCLCsquam, OC, OSCAR, RCC, SCLC, UBC, UEC"
21,185 (RPVLTASSF; listed as Homo sapiens) [compound 185],NHL
22,256 (SPVPSHWMVAL; listed as Homo sapiens) [compound 256],"CLL, NHL"

# Same assay, conditions: Table 8b; cancer entities on which the peptide was found presented (abbreviations in table head)
row,Substance,Peptide Presentation on cancer entities
1,492 (IPFSVDEI; listed as Homo sapiens) [compound 492],"NSCLCother, UEC"
2,480 (VPAAPTKAL; listed as Homo sapiens) [compound 480],CLL
3,456 (VPVSHPVLTL; listed as Homo sapiens) [compound 456],NSCLCsquam
4,477 (NPVPVITWYKDNRL; listed as Homo sapiens) [compound 477],MEL
5,487 (IPWFIKTAF; listed as Homo sapiens) [compound 487],MEL
6,473 (LPGEREAAL; listed as Homo sapiens) [compound 473],MEL
7,459 (SPAPWRPWI; listed as Homo sapiens) [compound 459],SCLC
8,468 (LPSLHVLVL; listed as Homo sapiens) [compound 468],MEL
